Results published in patent US20240123070A1, “EPITOPE PEPTIDE OF RAS G13D MUTANT AND T CELL RECEPTOR RECOGNIZING RAS G13D MUTANT” (SHANGHAI GENBASE BIOTECHNOLOGY CO., LTD., priority 2021, published 2024).

test system: murine TCRβ constant region; assay: mTCRβ expression detection on Jurkat-NFAT-Luc cells; type: cell-based; settings: TCR mutant transduced Jurkat-NFAT-Luc cells

Molecule | mTCRβ %
β98P-Q: B8.2.4 TCR point mutant, Vβ-CDR3 98P to Q (protein) TCR alpha: AQKITQTQPGMFVQEKEAVTLDCTYDTSDPSYGLFWYKQPSSGEMIFLIYQGSYDQQNATEGRYSLNFQKARKSANLVISASQLGDSAMYFCAMRERTGTASKLTFGTGTRLQVTLDIQNPEPAVYQLKDPRSQDSTLCLFTDFDSQINVPKTMESGTFITDKTVLDMKAMDSKSNGAIAWSNQTSFTCQDIFKETNATYPSSDVPCDATLTEKSFETDMNLNFQNLSVMGLRILLLKVAGFNLLMTLRLWSS TCR beta: DVKVTQSSRYLVKRTGEKVFLECVQDMDHENMFWYRQDPGLGLRLIYFSYDVKMKEKGDIPEGYSVSREKKERFSLILESASTNQTSMYLCASSQTVQPQHFGDGTRLSILEDLRNVTPPKVSLFEPSKAEIANKQKATLVCLARGFFPDHVELSWWVNGKEVHSGVSTDPQAYKESNYSYCLSSRLRVSATFWHNPRNHFRCQVQFHGLSEEDKWPEGSPKPVTQNISAEAWGRADCGITSASYQQGVLSATILYEILLGKATLYAVLVSTLVVMAMVKRKNS | 67.8%
β98P-T: B8.2.4 TCR point mutant, Vβ-CDR3 98P to T (protein) TCR alpha: AQKITQTQPGMFVQEKEAVTLDCTYDTSDPSYGLFWYKQPSSGEMIFLIYQGSYDQQNATEGRYSLNFQKARKSANLVISASQLGDSAMYFCAMRERTGTASKLTFGTGTRLQVTLDIQNPEPAVYQLKDPRSQDSTLCLFTDFDSQINVPKTMESGTFITDKTVLDMKAMDSKSNGAIAWSNQTSFTCQDIFKETNATYPSSDVPCDATLTEKSFETDMNLNFQNLSVMGLRILLLKVAGFNLLMTLRLWSS TCR beta: DVKVTQSSRYLVKRTGEKVFLECVQDMDHENMFWYRQDPGLGLRLIYFSYDVKMKEKGDIPEGYSVSREKKERFSLILESASTNQTSMYLCASSQTVTPQHFGDGTRLSILEDLRNVTPPKVSLFEPSKAEIANKQKATLVCLARGFFPDHVELSWWVNGKEVHSGVSTDPQAYKESNYSYCLSSRLRVSATFWHNPRNHFRCQVQFHGLSEEDKWPEGSPKPVTQNISAEAWGRADCGITSASYQQGVLSATILYEILLGKATLYAVLVSTLVVMAMVKRKNS | 54%
β98P-V: B8.2.4 TCR point mutant, Vβ-CDR3 98P to V; CDR3β ASSQTVVPQH (protein) TCR alpha: AQKITQTQPGMFVQEKEAVTLDCTYDTSDPSYGLFWYKQPSSGEMIFLIYQGSYDQQNATEGRYSLNFQKARKSANLVISASQLGDSAMYFCAMRERTGTASKLTFGTGTRLQVTLDIQNPEPAVYQLKDPRSQDSTLCLFTDFDSQINVPKTMESGTFITDKTVLDMKAMDSKSNGAIAWSNQTSFTCQDIFKETNATYPSSDVPCDATLTEKSFETDMNLNFQNLSVMGLRILLLKVAGFNLLMTLRLWSS TCR beta: DVKVTQSSRYLVKRTGEKVFLECVQDMDHENMFWYRQDPGLGLRLIYFSYDVKMKEKGDIPEGYSVSREKKERFSLILESASTNQTSMYLCASSQTVVPQHFGDGTRLSILEDLRNVTPPKVSLFEPSKAEIANKQKATLVCLARGFFPDHVELSWWVNGKEVHSGVSTDPQAYKESNYSYCLSSRLRVSATFWHNPRNHFRCQVQFHGLSEEDKWPEGSPKPVTQNISAEAWGRADCGITSASYQQGVLSATILYEILLGKATLYAVLVSTLVVMAMVKRKNS | 77.2%
β98P-S: B8.2.4 TCR point mutant, Vβ-CDR3 98P to S; CDR3β ASSQTVSPQH (protein) TCR alpha: AQKITQTQPGMFVQEKEAVTLDCTYDTSDPSYGLFWYKQPSSGEMIFLIYQGSYDQQNATEGRYSLNFQKARKSANLVISASQLGDSAMYFCAMRERTGTASKLTFGTGTRLQVTLDIQNPEPAVYQLKDPRSQDSTLCLFTDFDSQINVPKTMESGTFITDKTVLDMKAMDSKSNGAIAWSNQTSFTCQDIFKETNATYPSSDVPCDATLTEKSFETDMNLNFQNLSVMGLRILLLKVAGFNLLMTLRLWSS TCR beta: DVKVTQSSRYLVKRTGEKVFLECVQDMDHENMFWYRQDPGLGLRLIYFSYDVKMKEKGDIPEGYSVSREKKERFSLILESASTNQTSMYLCASSQTVSPQHFGDGTRLSILEDLRNVTPPKVSLFEPSKAEIANKQKATLVCLARGFFPDHVELSWWVNGKEVHSGVSTDPQAYKESNYSYCLSSRLRVSATFWHNPRNHFRCQVQFHGLSEEDKWPEGSPKPVTQNISAEAWGRADCGITSASYQQGVLSATILYEILLGKATLYAVLVSTLVVMAMVKRKNS | 76.3%
